Test results published in paper PMC5951908.
No constants are given. Whether binding was seen depends on the method and setting. In cells and extracts the contact can be indirect. Some results given as binding are weak or reduced against the parent protein; the word gives no strength.

T1: Aurora A (human (endogenous in HeLa)) (UniProt O14965)
T1 sequence: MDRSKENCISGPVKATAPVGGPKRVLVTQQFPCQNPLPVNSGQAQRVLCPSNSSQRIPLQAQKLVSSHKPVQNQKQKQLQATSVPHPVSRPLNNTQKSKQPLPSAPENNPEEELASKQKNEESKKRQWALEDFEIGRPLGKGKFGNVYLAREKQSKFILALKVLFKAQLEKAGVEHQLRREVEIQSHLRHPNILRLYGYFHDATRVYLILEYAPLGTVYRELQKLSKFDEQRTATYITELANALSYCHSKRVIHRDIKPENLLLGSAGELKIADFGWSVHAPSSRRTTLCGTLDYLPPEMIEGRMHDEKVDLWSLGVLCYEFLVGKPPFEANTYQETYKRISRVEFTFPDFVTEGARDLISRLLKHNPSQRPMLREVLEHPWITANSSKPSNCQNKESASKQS

B1: Aurora A (enzyme, UniProt O14965 1-403)
chain: T1 sequence

Key:
[1] = target: T1, Aurora A (human (endogenous in HeLa)); assay: co-IP; mitotic HeLa chromatin extract (micrococcal nuclease digest, 300 mM NaCl); overnight immunoprecipitation with rabbit anti-Aurora-A (Abcam Ab12875), protein G Dynabeads, washes with 300 mM NaCl and 0.1% IGEPAL, western blot
[2] = target: CENP-A (human (endogenous in HeLa)) (UniProt P49450); assay: co-IP; HeLa chromatin extract (micrococcal nuclease digest, 300 mM NaCl); overnight immunoprecipitation with in-house goat anti-CENP-A antibody, protein G Dynabeads, washes with 300 mM NaCl and 0.1% IGEPAL, elution with the immunising peptide, western blot

Molecule | binding [1] | binding [2]
CENP-A (from UniProt P49450 1-140) | binds | 
NDC80 (from UniProt O14777 1-642) | binds | binds
B1 |  | binds
